At least one structure is not confirmed: it was looked up by name or label, or the drawing left a doubt.
Assays:
Assay type in all cases: in vivo, mouse
[1] = system: apo-E knockout mice fed high-cholesterol diet; assay: Quantitative analysis of atherosclerotic plaques (Sudan IV stained aortas); settings: 1 mg/kg/d of each drug, 12 weeks, vs high-cholesterol diet alone
Protocol: Five pairs of C57BL/6J mice and three pairs of homozygous apo-E knockout mice (on C57BL/6J background) were obtained from Jackson Laboratories (Bar Harbor, Me.). They were bred by brother-sister mating and housed in a room lit from 6:00 AM to 6:00 PM and kept at 21° C. The C57BL/6J mice (n=10) were continued on regular diet for the entire study period. The apo-E knockout mice were divided into four groups. Group 1 (n=10) animals were given high-cholesterol diet (1% cholesterol) alone for 12 weeks since the age of 6 weeks; Group 2 (n=10) animals were given high-cholesterol diet with candesartan (1 mg/kg/d) for 12 weeks since the age of 6 weeks; Group 3 (n=10) animals were given high-cholesterol diet with the rosuvastatin (1 mg/kg/d) for 12 weeks since the age of 6 weeks; Group 4 (n=10) animals were given high-cholesterol diet with candesartan (1 mg/kg/d) and rosuvastatin (1 mg/kg/d) for 12 weeks since the age of 6 weeks. […] Quantitative Analysis of Atherosclerotic Plaques At the end of 12-week-treatment, 5 mice from each group were euthanized and the aortas were separated from surrounding tissues. […] The images were analyzed by soft ware (Image Pro Plus, Media Cybernetics). […] Statistical significance was determined in multiple comparisons among independent groups of data in which ANOVA and the F test indicated the presence of significant differences. […]

LOX-1 = LOX-1 expression in aorta by RT-PCR and Western blot; settings: aorta of apo-E knockout mice, high-cholesterol diet, 1 mg/kg/d of each drug, 12 weeks; vs high-cholesterol diet alone
Protocol: (§1) Five pairs of C57BL/6J mice and three pairs of homozygous apo-E knockout mice (on C57BL/6J background) were obtained from Jackson Laboratories (Bar Harbor, Me.). They were bred by brother-sister mating and housed in a room lit from 6:00 AM to 6:00 PM and kept at 21° C. The C57BL/6J mice (n=10) were continued on regular diet for the entire study period. The apo-E knockout mice were divided into four groups. Group 1 (n=10) animals were given high-cholesterol diet (1% cholesterol) alone for 12 weeks since the age of 6 weeks; Group 2 (n=10) animals were given high-cholesterol diet with candesartan (1 mg/kg/d) for 12 weeks since the age of 6 weeks; Group 3 (n=10) animals were given high-cholesterol diet with the rosuvastatin (1 mg/kg/d) for 12 weeks since the age of 6 weeks; Group 4 (n=10) animals were given high-cholesterol diet with candesartan (1 mg/kg/d) and rosuvastatin (1 mg/kg/d) for 12 weeks since the age of 6 weeks.
(§2) At the end of 12-week-treatment, 5 mice from each group were euthanized and the aortas (from aorta arch to iliac bifurcation) were separated from surrounding tissues and stored on dry ice. Each aorta was cut into four segments, two of which were used to extract total RNA with the single-step acid-guanidinium thiocyanate-phenol-chloroform method as described earlier (27). […]

MMP-1 = MMP-1 expression in aorta by RT-PCR and Western blot; settings: aorta of apo-E knockout mice, high-cholesterol diet, 1 mg/kg/d of each drug, 12 weeks; vs high-cholesterol diet alone
Protocol: as §1, §2

MMP-2 = MMP-2 expression in aorta by RT-PCR and Western blot; settings: aorta of apo-E knockout mice, high-cholesterol diet, 1 mg/kg/d of each drug, 12 weeks; vs high-cholesterol diet alone
Protocol: as §1, §2

TIMP-2 = TIMP-2 protein expression in aorta by Western blot; settings: aorta of apo-E knockout mice, high-cholesterol diet, 1 mg/kg/d of each drug, 12 weeks; vs high-cholesterol diet alone
Protocol: (§3) Five pairs of C57BL/6J mice and three pairs of homozygous apo-E knockout mice (on C57BL/6J background) were obtained from Jackson Laboratories (Bar Harbor, Me.). They were bred by brother-sister mating and housed in a room lit from 6:00 AM to 6:00 PM and kept at 21° C. The C57BL/6J mice (n=10) were continued on regular diet for the entire study period. The apo-E knockout mice were divided into four groups. […]
(§4) Each mouse aorta was cut into four segments. […] Membranes were washed and then incubated with 1:5000 dilution specific secondary antibody (Amersham Life Science) for 2 hours at room temperature, and the membranes were washed and detected with the ECL system (Amersham Life Science). The relative intensities of protein bands were analyzed by Scan-gel-it software (Li D Y, Zhang Y C, Sawamura T, Mehta J L. Circ Res. 1999; 84:1043-1049).
(§5) All data represent mean of duplicate samples. […] Statistical significance was determined in multiple comparisons among independent groups of data in which ANOVA and the F test indicated the presence of significant differences. […]

MMP-9 = MMP-9 expression in aorta by RT-PCR and Western blot; settings: aorta of apo-E knockout mice, high-cholesterol diet, 1 mg/kg/d of each drug, 12 weeks; vs high-cholesterol diet alone
Protocol: as §1, §2

CD40 = CD40 expression in aorta by RT-PCR and Western blot; settings: aorta of apo-E knockout mice, high-cholesterol diet, 1 mg/kg/d of each drug, 12 weeks; vs high-cholesterol diet alone
Protocol: as §1, §2

TIMP-1 = TIMP-1 protein expression in aorta by Western blot; settings: aorta of apo-E knockout mice, high-cholesterol diet, 1 mg/kg/d of each drug, 12 weeks; vs high-cholesterol diet alone
Protocol: as §3, §4, §5

For CCOc1nc2cccc(C(=O)O)c2n1Cc1ccc(-c2ccccc2-c2nnn[nH]2)cc1 [candesartan], the “extent of atherosclerosis (in words)” value [1] was “decreased the extent of atherosclerosis”, the “LOX-1 expression (mRNA and protein)” value (LOX-1) was “decreased the LOX-1 expression (mRNA and protein), albeit modestly” and the “MMP-1 expression (mRNA and protein)” value (MMP-1) was “decreased MMP-1, -2 and -9 expression (mRNA and protein), albeit modestly”. For the same compound, the “MMP-2 expression (mRNA and protein)” value (MMP-2) was “decreased MMP-1, -2 and -9 expression (mRNA and protein), albeit modestly”, the TIMP-2 protein expression (TIMP-2) was “reduced TIMP-1 and TIMP-2 expression by a small degree” and the “MMP-9 expression (mRNA and protein)” value (MMP-9) was “decreased MMP-1, -2 and -9 expression (mRNA and protein), albeit modestly”. The “CD40 expression (mRNA and protein)” value (CD40) was “slightly decreased CD40 expression” and the TIMP-1 protein expression (TIMP-1) was “reduced TIMP-1 and TIMP-2 expression by a small degree”.

From patent US7932263B2, “Therapeutic treatment” (AstraZeneca AB, priority 2003, dated 2011)
